This is an account of results in PubChem BioAssay AID2685 (National Center for Advancing Translational Sciences (NCATS), 2010).

The assay in a line: qHTS Assay for Lipid Storage Modulators in Drosophila S3 Cells.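 For cell number change: cells counted by Cell Tracker Red CMTPX staining in the red channel.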 The conditions noted are these: BODIPY lipid droplet fluorescence, 18-24 h; for cell number change: measured here: cell count max response, cells fed with added oleic acid. The essentials:
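Drosophila S3 cells loaded with oleic acid (400 uM, as added) and compounds at several concentrations; lipid droplets imaged by 488-nm laser-scanning cytometry, 500–530 nm intensity and object ratio to cell channel. Percent activity normalized to 20 uM Triacsin C.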
For orientation: In qHTS, concentration-response curves come from the screen itself.

Where [1] appears, read: measured here: cell number channel AC50, cells fed with added oleic acid.
The mark [2] stands for this setting: measured here: lipid fluorescence (Fed channel) AC50, cells fed with added oleic acid.

The other results are listed elsewhere or left out. The main result of the screen is listed elsewhere. These columns were measured beside it and carry no call. Most of these compounds were active or inconclusive in the main read-out, so they are no random draw. Words in brackets tell the shape of the fitted curve; partial curves, single points and poor fits give uncertain potencies.

For `Oc1cccc(/C=N/N2CCN(C3c4ccccc4-c4ccccc43)CC2)c1`, the cell number change is -38.6%. Further, the AC50 (commonly the concentration at which the activity in the assay is half-maximal) under setting [1] was 29.1 µM [falling, single point].
Regarding `CC(=O)Nc1ccc(S(=O)(=O)NCCSCc2ccccc2Cl)cc1`, the cell number change turned out to be 11.9%. Moreover, the AC50 under setting [2] is 4.61 µM [falling, single point].
Consider `O=C(NNC1=NCCC1)c1ccc(Br)cc1`, for which the cell number change was 26.7%. Moreover, the AC50 under setting [2] was 0.58 µM [falling, single point].
As for `CCN(C(=O)CO/N=C/c1ccc(OC)cc1OC)c1c(N)n(Cc2ccccc2)c(=O)[nH]c1=O`, the cell number change came to 30.2%. Also, the AC50 under setting [1] is 0.206 µM [rising, full curve, poor fit].
For `CCOc1cc(Br)cc(C(c2c(C(=O)O)[nH]c3ccccc23)c2c(C(=O)O)[nH]c3ccccc23)c1O`, the cell number change is -15.3%. Moreover, under setting [2], the AC50 is 29.1 µM [falling, single point].
On to `C=C[C@@H]1c2ccccc2N(S(=O)(=O)c2ccc(C)cc2)[C@H](c2ccccc2)C1(C#N)C#N`, for which the cell number change turned out to be 2.03%. Further, under setting [1], the AC50 was 0.116 µM [falling, full curve, poor fit]. Moreover, the AC50 under setting [2] is 7.31 µM [falling, partial curve, poor fit].
For the compound `CCn1nnnc1NCc1cccc(Cl)c1`, the cell number change worked out at 19.7%. Moreover, under setting [1], the AC50 is 0.0461 µM [rising, partial curve]. For the same compound, the AC50 under setting [2] is 0.103 µM [rising, partial curve, poor fit].
Take `CCn1c(CCn2ccnc2C)n[nH]c1=S`: the cell number change was -17.4%. Besides, the AC50 under setting [2] is 18.4 µM [falling, partial curve].
Consider `CCc1nc(NCC2CCCO2)c(C#N)c2c1COC(C)(C)C2` (configuration not stated), for which the cell number change was -19.8%. The AC50 under setting [2] is 9.2 µM [falling, partial curve, poor fit].
For `O=S(=O)(NCc1ccccc1Cl)c1cccs1`, the cell number change came to 34.4%. The AC50 under setting [1] was 4.61 µM [rising, full curve]. Also, the AC50 under setting [2] is 29.1 µM [rising, single point].
`COc1cccc(/C=N/NC(=S)NCCc2ccccc2)c1`: the cell number change was found to be 16.2%.
On the same count and under the same terms, the same measure for `COc1ccc(OCC(O)CN2C(=O)c3ccccc3S2(=O)=O)cc1` (configuration not stated): -15.2%.
For `COc1ccc(Cl)cc1S(=O)(=O)n1c([N+](=O)[O-])cnc1C`, the AC50 under setting [2] was 29.1 µM [rising, single point].
Still for that read-out and setting: to `Cc1ccc2nsnc2c1NC(=O)c1ccc([N+](=O)[O-])o1` belongs 6.51 µM [falling, single point].
On to `CC(C)c1ccc(NC(=S)NCc2cccs2)cc1`, for which the cell number change is -20.8%. Moreover, the AC50 under setting [2] was 0.461 µM [falling, full curve, poor fit].
As for `O=C(Nc1ccc(Oc2cccnc2)cc1)C1CCCCN1Cc1ccc(CO)o1` (configuration not stated), the AC50 under setting [2] was 6.31 µM [rising, full curve].
Regarding `O/N=C(/CCc1ccccc1)C1(O)CCCCC1`, the cell number change was found to be 3.33%. In addition, under setting [2], the AC50 was 18.4 µM [falling, single point].
